Measured values as given in article PMC3510032.
These are yes or no findings as the source states them, for the method shown. In cells and extracts the contact can be indirect.

Target: T1, Shep (endogenous, embryo nuclear extract) (Drosophila (endogenous in embryos)) (UniProt Q8MSV2)
T1 sequence: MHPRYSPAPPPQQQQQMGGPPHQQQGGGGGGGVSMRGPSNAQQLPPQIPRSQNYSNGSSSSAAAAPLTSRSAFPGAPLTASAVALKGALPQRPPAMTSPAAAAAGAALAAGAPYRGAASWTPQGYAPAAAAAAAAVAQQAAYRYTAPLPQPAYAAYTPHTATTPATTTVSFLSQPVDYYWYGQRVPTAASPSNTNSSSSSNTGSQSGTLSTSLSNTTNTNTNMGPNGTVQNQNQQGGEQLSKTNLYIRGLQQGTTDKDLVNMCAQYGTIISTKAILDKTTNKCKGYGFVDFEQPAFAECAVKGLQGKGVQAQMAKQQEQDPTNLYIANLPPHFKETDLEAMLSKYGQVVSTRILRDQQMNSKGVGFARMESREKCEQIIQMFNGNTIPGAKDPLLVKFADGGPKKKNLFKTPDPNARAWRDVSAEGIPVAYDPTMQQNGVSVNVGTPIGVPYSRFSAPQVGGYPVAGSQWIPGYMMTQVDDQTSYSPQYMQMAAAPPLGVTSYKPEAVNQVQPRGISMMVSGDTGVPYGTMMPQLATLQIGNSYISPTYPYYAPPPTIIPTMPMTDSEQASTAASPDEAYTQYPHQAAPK
Test: co-IP; embryo nuclear extracts in HBSMT, α-Shep or pre-immune serum pre-conjugated to protein A sepharose, 1 h at 4°C; Western blotting

binding: no binding
B1: Pc (protein, UniProt P26017 1-390)
chain: MTGRGKGSKGKLGRDNATDDPVDLVYAAEKIIQKRVKKGVVEYRVKWKGWNQRYNTWEPEVNILDRRLIDIYEQTNKSSGTPSKRGIKKKEKEPDPEPESEEDEYTFTENDVDTHQATTSSATHDKESKKEKKHHHHHHHHHHIKSERNSGRRSESPLTHHHHHHHHESKRQRIDHSSSSNSSFTHNSFVPEPDSNSSSSEDQPLIGTKRKAEVLKESGKIGVTIKTSPDGPTIKPQPTQQVTPSQQQPFQDQQQAEKIASEAATQLKSEQQATPLATEAINTTPAESGAEEEEVANEEGNQQAPQVPSENNNIPKPCNNLAINQKQPLTPLSPRALPPRFWLPAKCNISNRVVITDVTVNLETVTIRECKTERGFFRERDMKGDSSPVA
